Values quoted from earlier work, collected in patent US7863285B2, “Purinone derivatives as HM74A agonists” (Incyte Corporation, priority 2006, dated 2011).
For at least one compound, name, drawing or mass did not settle the structure.

Conditions: clinical; cited from earlier work

## CC(C)OC(=O)C(C)(C)Oc1ccc(C(=O)c2ccc(Cl)cc2)cc1 [Fenofibrate]
  decrease of plasma triglycerides: 40-60%
